Laboratory results: PubChem BioAssay AID485349 (National Center for Advancing Translational Sciences (NCATS), 2010)
The campaign covered roughly 320,000 compounds. About 620 (0.19%) were called active. This list was built around the results that the source calls inconclusive (neither active nor inactive); the mix of calls is not that of the screen. Calls follow the shape of the dose curve; as a rule, active = well fitted activation curve with a large enough effect; inconclusive = small, poorly fitted or top-dose-only effect; inactive = no such curve, though single readings can be large or run the other way. Where the call is inconclusive, the potency comes from a doubtful curve fit.

Assay: qHTS Assay for Identifying a Potential Treatment of Ataxia-Telangiectasia; also: nearly all actives have a fitted effect of over 45% in size; as to activation: % of control where 0% means no effect
Conditions: […] A-T fibroblasts, KAP-1 phosphorylation AlphaLISA, neocarzinostatin DNA damage 30 min before lysis; series mostly up to 57.5 µM; activation: at the top concentration
Method in brief: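 ATM-like activity read as KAP-1 phosphorylation via AlphaLISA donor/acceptor antibody pairs after lysis and 6 hr at 25C. Cells were ATM-null patient fibroblasts ([…], hTERT), dosed 60 min, then exposed to the DSB inducer NCS for 30 min.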
Potency is read from the fitted curve at half-maximal effect.

SMILES | Potency | activation
COc1cc(O)c2c(c1)OC(c1ccc(O)cc1)CC2=O (centres undefined) | active: 39.8 µM | 
COc1ccc(N2CC(C(=O)NC3CCSC3=O)CC2=O)cc1 (centres undefined) | inconclusive: 10 µM [activator, partial curve, poor fit] | 
O=C(Nc1cc(C(F)(F)F)ccc1Cl)C(Sc1ccccn1)c1ccccc1 (centres undefined) | inconclusive: 4.47 µM [activator, single point] | 
O=C1C=C(O)c2c(O)cccc2C1=O | inconclusive: 0.794 µM [activator, partial curve] | 
O=C(Nc1nc2ccsc2c(=O)s1)c1ccc(F)cc1 | inconclusive: 44.7 µM [activator, partial curve, poor fit] | 
O=C(Nc1csnn1)c1csnn1 | inconclusive: 31.6 µM [activator, partial curve] | 
COc1ccc(COC(=O)NC(C(=O)O)c2ccccc2)cc1 (centres undefined) | inconclusive: 39.8 µM [activator, single point] | 
CCC(=O)c1cc2c(C)cc(=O)oc2c(C)c1OC |  | inactive: -0.356%
CC(=O)/C(N=Nc1nc2c([nH]1)c(=O)n(C)c(=O)n2C)=C(\C)O | active: 7.08 µM | 
O=C(c1ccc2c(c1)OCO2)N1CCC2(CC1)Oc1ccc(F)cc1C(=O)C21CC(c2ccccc2)=NO1 (centres undefined) | inconclusive: 3.98 µM [activator, single point] | 
COc1ccccc1N(C)S(=O)(=O)c1ccc(C(=O)N2CCCC(C(F)(F)F)C2)cc1 (centres undefined) |  | inactive: -0.457%
COc1ccc(/C=C/C(=O)Nc2ccccc2C(N)=O)cc1S(=O)(=O)N1CCOCC1 | inconclusive: 20 µM [activator, partial curve] | 
CCN(Cc1ccccc1)C(=O)CCc1nc(-c2ccc(C)cc2)no1 | inconclusive: 15.8 µM [activator, partial curve, poor fit] | 
Cc1cccc(C2=NN(c3ccc(Br)cc3)[C@@H](C(=O)N3CCOC3=O)[C@@H]2c2ccc(F)cc2)c1 | active: 17.8 µM | 
COC(=O)NNC(=O)Cc1cccc2ccccc12 | inconclusive: 8.91 µM [activator, full curve, poor fit] | 
CCOc1ccc(-c2nc(C#N)c(NC3CC3)o2)cc1 |  | inactive: 5.87%
Cc1ccc(C(=O)Nc2sc3c(c2C(=O)O)CCCCC3)o1 | active: 10 µM | 
CCc1nnc(NC(=O)CCC(=O)N2CCN(c3ccccn3)CC2)s1 |  | inactive: 8.62%
C=CCNC(=S)NNC(=O)C(CC(C)C)CC(C)O (centres undefined) | inconclusive: 39.8 µM [activator, single point] | 
O=C(CNCC1CCCCC1)Nc1ccccc1N1CCCCC1 | inconclusive: 28.2 µM [activator, single point] | 
N=c1c2c(-c3ccccc3)c(-c3ccccc3)n(Cc3ccccc3)c2ncn1CCCn1ccnc1 | inconclusive: 31.6 µM [activator, partial curve] | 
COc1ccc(NC(=O)C(NC(C)=O)C(=O)NCc2ccccc2OC)cc1 (centres undefined) |  | inactive: 0.516%
COc1ccc(-c2ccc(-c3noc(C(C)C)n3)c(OC)n2)cc1 | active: 14.1 µM | 

SMILES | Potency | activation
CCN(CC)S(=O)(=O)c1cccc(-c2nnc(SCC#N)n2Cc2ccccc2)c1 | inconclusive: 6.31 µM [activator, single point] | 
CC(=O)Nc1ccc(C(=O)CSc2ncn(-c3ccccc3)n2)cc1 |  | inactive: -4.99%
Cc1c(CCOC(=O)c2cc([N+](=O)[O-])cc([N+](=O)[O-])c2)sc[n+]1CC(=O)c1ccccc1 |  | inactive: -2.95%
C=C1CCN([C@H](C(=O)OCc2ccc(C)cc2)C(C)C)S(=O)(=O)c2ccccc21 | active: 39.8 µM | 
Cc1ccc(Sc2nnc(Cc3ccccc3)c3ccccc23)cc1 | inconclusive: 10 µM [activator, partial curve] | 
O=C(O)c1cccc(Cn2c(Cl)c(/C=N/NC(=O)c3ccccc3Cl)sc2=O)c1 |  | inactive: 3.22%
Cc1ccc(-c2nc(C(Cl)Cl)c3ccccc3n2)cc1 | inconclusive: 35.5 µM [activator, single point] | 
CCC1C(c2ccccc2)N(C)C(c2ccccc2)CC1(O)c1ccccc1 (centres undefined) | inconclusive: 39.8 µM [activator, single point] | 
COc1cc(C#Cc2c(-c3cncn3C)n(C)c3ccc(-c4ccc(OC)nc4)cc23)cc(OC)c1 | active: 31.6 µM | 
C/C=C\C=C/C(=O)Nc1cccc(C2=NOC3(C2)C[C@@H](C(N)=O)N(C(=O)/C=C/CC)C3)c1 (some centres undefined) | inconclusive: 31.6 µM [activator, single point] | 
CC(C)(C)C1=CC(=O)C(=O)C(C(C)(C)C)=C1 | inconclusive: 6.31 µM [activator, single point] | 
Cc1cccc(OCCOC(=O)C2CCN(S(=O)(=O)c3cccs3)CC2)c1 | inconclusive: 14.1 µM [activator, partial curve] | 
CCOC(=O)C1CCN(C(=O)c2cn(-c3ccccc3)nc2-c2cccnc2)CC1 | inconclusive: 3.98 µM [activator, single point] | 
O=C(/C=C/Nc1ccc(F)cc1F)c1cccs1 |  | inactive: 13.6%
COc1ccc(C(=O)Nc2ccc3ccccc3c2)cc1OC |  | inactive: 5.5%
N#Cc1ccc(-c2nc3ccccc3c(=O)n2O)cc1 | inconclusive: 2.82 µM [activator, full curve, poor fit] | 
CC(=O)c1ccc(N2CCN(C(=O)CCS(=O)(=O)c3ccc4c(c3)CCN4C(C)=O)CC2)cc1 | inconclusive: 22.4 µM [activator, partial curve, poor fit] | 
C#CCOCCOCCOCCNc1nc(N2CCOCC2)nc(N2CCN(C(=O)CCCCCCCCCCNC(=O)Cn3cc(CCCCCN)nn3)CC2)n1 | inconclusive: 39.8 µM [activator, partial curve] | 
CC1(C)CC(=O)C(N=Nc2ccc(Br)cc2)=C(O)C1 | inconclusive: 39.8 µM [activator, single point] | 
COc1ccc(Cn2c(C3CC3)nc3ccc(NC(C)=O)cc3c2=O)cc1 | inconclusive: 28.2 µM [activator, partial curve] | 
CCOC(=O)C1CCN(S(=O)(=O)c2ccc(OC)c(C(=O)N3CCCCC3)c2)CC1 |  | inactive: -4.75%
COc1cc(C2SCC(=O)N2c2c(C)n(C)n(-c3ccccc3)c2=O)ccc1O (centres undefined) | inconclusive: 39.8 µM [activator, single point] | 
CCS(=O)(=O)c1ccc(C(=O)Nc2ccccc2)c(Cl)c1Cl | inconclusive: 3.16 µM [activator, partial curve] | 

4 compounds drawn at random from those above, as already listed:
SMILES | Potency | activation
CC(=O)c1ccc(N2CCN(C(=O)CCS(=O)(=O)c3ccc4c(c3)CCN4C(C)=O)CC2)cc1 | inconclusive: 22.4 µM [activator, partial curve, poor fit] | 
COc1ccc(COC(=O)NC(C(=O)O)c2ccccc2)cc1 (centres undefined) | inconclusive: 39.8 µM [activator, single point] | 
Cc1ccc(C(=O)Nc2sc3c(c2C(=O)O)CCCCC3)o1 | active: 10 µM | 
COc1ccc(-c2ccc(-c3noc(C(C)C)n3)c(OC)n2)cc1 | active: 14.1 µM | 

Next compounds

SMILES | Potency | activation
COc1ccc([N+](=O)[O-])cc1NC(=O)COC(=O)c1ccccn1 |  | inactive: -6.24%
Clc1cccc(Cl)c1CSc1nnc(-c2ccncc2)s1 | inconclusive: 8.91 µM [activator, partial curve] | 
COC(=O)c1ccc2[nH]c3cccc(/C(=C/c4ccccc4)c4ccccc4)c3c2c1 | inconclusive: 39.8 µM [activator, single point] | 
O=C(CN1CCCCCCC1)Nc1ccc(Cl)cc1Cl | inconclusive: 39.8 µM [activator, single point] | 
C=CS(=O)(=O)c1sc(Cl)c(N2CCOCC2)c1[N+](=O)[O-] | inconclusive: 5.62 µM [activator, single point] | 
CC(NC(=O)CNC(=O)c1cccc(Cl)c1)c1ccccc1 (centres undefined) | inconclusive: 0.708 µM [activator, full curve, poor fit] | 
O=C(c1cc(COc2c(F)cccc2F)on1)N1CCCCCC1 | inconclusive: 2.24 µM [activator, partial curve] | 
CCCn1nc(NC(=O)C2CCCO2)c2cc3cccc(C)c3nc21 (centres undefined) | inconclusive: 35.5 µM [activator, single point] | 
CN(CC(=O)Nc1cccc2ccccc12)C(=O)c1ccc(F)cc1F |  | inactive: -0.319%
Cc1cccc(-c2oc3ccc(-c4ccc5c(c4)OCO5)cc3c2/C=C/c2ccc(N)cc2)c1 | inconclusive: 31.6 µM [activator, single point] | 
O=C(Nc1cccc(C(=O)Nc2ccc(Br)cc2)c1)c1ccccc1 |  | inactive: 3.33%
CCOC(=O)CCC(=O)Nc1ncnc2c1C(c1ccccc1)c1c(ccc3ccccc13)O2 (centres undefined) |  | inactive: -0.239%
Cc1cc(Nc2ccccc2Cl)nc(-c2ccccc2O)n1 | inconclusive: 39.8 µM [activator, partial curve] | 
COc1cc(SC)ccc1C(=O)Nc1cccc(C2OCCCO2)c1 | inconclusive: 5.01 µM [activator, full curve] | 
Cc1cc(/C=C(\C#N)C(=O)O)c(C)n1CCC(C)C | inconclusive: 3.55 µM [activator, partial curve] | 
CCOC(=O)N1CCN(C(=O)COC(=O)c2ccccc2NCCO)CC1 | inconclusive: 35.5 µM [activator, partial curve] | 
O=C(NCc1ccccc1)c1cccnc1Sc1ccccc1 | inconclusive: 0.631 µM [activator, partial curve, poor fit] | 
Cc1c(NC(=O)c2cnn3c(C(F)(F)F)cc(-c4ccco4)nc23)c(=O)n(-c2ccccc2)n1C | active: 15.8 µM | 
O=C(/C(=C/c1ccc(Cl)cc1)c1nc2ccccc2[nH]1)c1cccs1 | active: 3.55 µM | 
CCOc1ccc2nc(N3CCOCC3)nc(C)c2c1 | inconclusive: 22.4 µM [activator, partial curve, poor fit] | 
CCCc1ccc(S(=O)(=O)Nc2ccc(C)c(NS(C)(=O)=O)c2)cc1 | inconclusive: 0.631 µM [activator, partial curve, poor fit] | 
COc1cc(NC(C)=O)c2ncccc2c1NC(C)=O | active: 35.5 µM | 
Cn1c(=O)n(C)c2cc(C(=O)Nc3ccc(Br)cc3)ccc21 | inconclusive: 0.708 µM [activator, full curve, poor fit] | 
